Assay results: the supplement of paper PMC10338343
± gives the standard deviation. The entries are a selection whose mix differs from that of the whole data set. Many entries were measured with a wide error.

Each sequence was assayed on MIWI (PIWIL1) piRISC loaded with piRNA #1 (30 nt) (assay: pre-steady-state target cleavage rate (min^-1); MIWI and MILI are mouse PIWI proteins and EfPiwi is from a freshwater sponge; tags in brackets are library labels; higher = faster piRNA-guided slicing of the target). Settings: guide: piRNA #1 5'p-UGAGGUAGUAGGUUGUAUAGUAUCCAGAGG; auxiliary factor: 500 nM mouse GTSF1.
How it was run: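 The pre-steady-state cleavage rate was calculated from a burst-and-steady-state fit. Data came from Cleave-'n-Seq, in which […] transcribed, DNA-blocked target RNA library was mixed with 1 nM active affinity-purified piRISC carrying one synthetic guide, with or without 500 nM GTSF1 partner protein, in HEPES–potassium acetate buffer at 33 °C for 0–8 or 0–960 min. Uncleaved targets were sequenced and normalised to depth and to weakly complementary targets, three trials were pooled, and k3 was capped at 0.0001 min^-1.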
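Note: 1 nM active piRISC with 0.1 nM target library at 33 °C single turnover.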

| Sequence | pre-steady-state target cleavage rate |
| --- | --- |
| GGACUUGGAUACUAUACAACCUACUACCUCA | 1.78 ± 0.11 |
| GCUCUGGCUACUAUACAACCUACUACCUCA | 1.93 ± 0.099 |
| CCUGACGAUACUAUACAACCUACUACCUCA | 2.06 ± 0.12 |
| CCUCUGGAUACUAUACAACCUCCUACCUCA | 1.32 ± 0.068 |
| CCUCUGGAUACUAUACAACCUACUUACCUCA | 2.2 ± 0.14 |
| CCUCUGCAUUCUAUACAACCUACUACCUCA | 2.13 ± 0.13 |
| GCACUGGAUACUAUACAACCUACUACCUCA | 1.81 ± 0.093 |
| GGAGAGGAUACUAUACAACCUACCACCUCA | 0.849 ± 0.049 |
| GGAGACCUAUGAUUAACAACCUACUACCUCA | 0.00262 ± 0.0033 |
| GGAGACCUAUGAUAUGUAGGAACUACCUCA | 0.000234 ± 0.013 |
| GCUCGUGGAUACUAUACAACCUACUACCUCA | 1.85 ± 0.095 |
| GGAGACCUAUGAUAUGUUGCUACUACCGCA | 0.000968 ± 0.0073 |
| GGAGACCUAUGAAUAUAACCUACUACCUCA | 0.0016 ± 0.003 |
| CCUCUGGAUACGAUACAACCUACUACCUCA | 2.07 ± 0.11 |
| GGAGACCAUACUAUUCAACCUACUACCACA | 1.05 ± 0.078 |
| GGAGACCUAUGUAUACAACCUACAACCACA | 0.00243 ± 0.0026 |
| CCUCUGGUUACUAUACAACCUACUACCACA | 1.79 ± 0.14 |
| GGACUGGAUACUAUACAACCUACAACCACA | 0.000825 ± 0.0049 |
| GGUCUGGAUACUAUACAACGCUACUACCUCA | 0.000506 ± 0.01 |
| GGAGACCUAUGAUAUGUUCCUUCUACCUGA | 0.000282 ± 0.013 |

Exported in CSV form: part of the list above.
Sequence,pre-steady-state target cleavage rate
GCACUGGAUACUAUACAACCUACUACCUCA,1.81 ± 0.093
GGAGACCAUACUAUUCAACCUACUACCACA,1.05 ± 0.078

Remaining list, next part.

| Sequence | pre-steady-state target cleavage rate |
| --- | --- |
| GGUCUGGAAACUAUACAACCAACUACCUCA | 0.138 ± 0.015 |
| GGACUGGAUACUAUACGAACCUACUACCUCA | 0.0008 ± 0.011 |
| GGAGACCUAUGAUAACAACCUACUAUCCUCA | 0.00205 ± 0.0046 |
| GCUCUGGAUACUAAACAACCUACAACCUCA | 1.23 ± 0.089 |
| GGUCUUGAUACUAUACAACCUACUACCUCA | 1.87 ± 0.11 |
| GGAGAGGAUACUAUACAACCUCUACCUCA | 0.00193 ± 0.0039 |
| GGAGACCUAUGUAUCAACCUACUACCUCA | 0.00173 ± 0.0024 |
| GGACUGGAUACUAUACAAUCCUACUACCUCA | 0.000411 ± 0.023 |
| GCUCUGGAUACCUAUACAACCUACUACCUCA | 1.06 ± 0.08 |
| GGACUGGAUACUAUACAACCUAGUACCUGA | 0.00268 ± 0.0037 |
| GGAGAGGAUACUAUUCAACCUACUACCUCA | 1.23 ± 0.062 |
| GCUCUGGAUACUAUACAACGCUACUACCUCA | 0.00199 ± 0.0061 |
| GGAGACCUAUGUUUACAUCCUACUACCUCA | 0.00238 ± 0.0028 |
| GGAGACCUAUGAUAACAACCUACUACCUCCA | 0.00127 ± 0.0037 |
| CCUCUGGAUACUAUUACAACCUACUACCUCA | 1.82 ± 0.12 |
| GCUCAGGAUACUAUACAUCCUACUACCUCA | 1.85 ± 0.099 |
| GGAGACCUUACUAUACAACCUACAUGCUCA | 0.00171 ± 0.0038 |
| GGAGACCUAUGAUAUGUUGGUACAUACCUCA | 0.000533 ± 0.01 |
| GGUCUGGAUACUAUACAACUCUACUACCUCA | 0.000177 ± 0.016 |
| GGAGACCUAUGAUAUGUUGGUGACUACCUCA | 0.000323 ± 0.012 |
